This assay addresses N-terminal fragment of MUC1 (388 amino acid residues long at the N-terminus) (human (human cervical cancer cell line SiHa)) (UniProt P15941). Kind of assay: Western blotting of SiHa cell extracts. On the technique in general: A western blot detects proteins with antibodies after separation by electrophoresis.

Amino acid sequences for entries named in this document (tags omitted). A change or cut given only in a name is not applied to a line headed by its entry.
UniProt P15941: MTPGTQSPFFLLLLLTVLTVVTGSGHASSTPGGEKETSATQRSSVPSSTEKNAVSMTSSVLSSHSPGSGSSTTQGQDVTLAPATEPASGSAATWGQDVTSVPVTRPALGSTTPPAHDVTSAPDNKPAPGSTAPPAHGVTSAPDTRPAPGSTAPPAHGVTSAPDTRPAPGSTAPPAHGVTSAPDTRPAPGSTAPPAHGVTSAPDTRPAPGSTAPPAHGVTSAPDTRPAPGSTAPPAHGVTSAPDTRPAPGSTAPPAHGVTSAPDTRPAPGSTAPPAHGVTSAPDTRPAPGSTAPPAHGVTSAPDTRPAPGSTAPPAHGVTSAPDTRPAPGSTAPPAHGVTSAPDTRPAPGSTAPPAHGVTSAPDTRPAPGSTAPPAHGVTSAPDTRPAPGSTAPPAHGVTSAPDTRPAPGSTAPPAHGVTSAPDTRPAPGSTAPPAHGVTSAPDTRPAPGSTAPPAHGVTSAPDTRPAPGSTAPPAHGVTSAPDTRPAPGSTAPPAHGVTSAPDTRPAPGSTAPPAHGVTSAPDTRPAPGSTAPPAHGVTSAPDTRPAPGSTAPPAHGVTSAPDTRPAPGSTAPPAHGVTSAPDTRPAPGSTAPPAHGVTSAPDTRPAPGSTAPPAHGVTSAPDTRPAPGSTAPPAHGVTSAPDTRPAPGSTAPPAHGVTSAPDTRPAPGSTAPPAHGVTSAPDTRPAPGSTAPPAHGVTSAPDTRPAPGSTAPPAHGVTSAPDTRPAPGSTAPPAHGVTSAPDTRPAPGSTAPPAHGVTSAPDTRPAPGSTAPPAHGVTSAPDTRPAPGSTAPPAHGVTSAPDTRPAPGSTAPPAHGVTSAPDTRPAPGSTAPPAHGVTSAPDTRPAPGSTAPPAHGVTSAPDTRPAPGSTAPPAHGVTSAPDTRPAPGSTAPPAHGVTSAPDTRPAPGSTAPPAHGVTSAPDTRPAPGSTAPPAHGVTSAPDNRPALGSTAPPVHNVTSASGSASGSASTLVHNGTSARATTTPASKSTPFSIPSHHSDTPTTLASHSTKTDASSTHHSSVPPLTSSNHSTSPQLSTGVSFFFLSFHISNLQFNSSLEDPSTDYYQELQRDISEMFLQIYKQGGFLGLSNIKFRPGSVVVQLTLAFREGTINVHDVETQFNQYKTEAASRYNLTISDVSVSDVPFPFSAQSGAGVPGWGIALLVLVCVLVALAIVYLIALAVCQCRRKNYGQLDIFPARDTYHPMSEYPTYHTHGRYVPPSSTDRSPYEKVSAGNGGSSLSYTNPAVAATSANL

Results are given in words; binding and its absence hold for the method and conditions named. Some results given as binding are weak or reduced against the parent protein; the word gives no strength.

B1: anti-MUC1 monoclonal antibody (antibody, V domains shown)
VH: EVKLEESGGGLVQPGGSMKLSCVASGFSFSDYWMNWVRQSPDKGLEWISDIRLKSYNYATHYAESVKGRFTISRDDSKSGVYLQMNNLRAEDTGLYYCTFGNSFAYWGQGTLVTVSA
VL: QAVVTQESALTTSPGETVTLTCRSSTGAVTTSNYANWVQEKPDHLFTGLIGGTNNRAPGVPARFSGSLIGDKAALTITGAQTEDEAIYFCALWYSNHWVFGGGTKLTVLG
notes: also called MUC1 antibody
As to B1, the binding result is “binds”.
